# In the supplement of paper PMC10032668:
# Amino acid sequences for entries named in this document (tags omitted).
# CNOT3, O75175, UniProt O75175, whole entry: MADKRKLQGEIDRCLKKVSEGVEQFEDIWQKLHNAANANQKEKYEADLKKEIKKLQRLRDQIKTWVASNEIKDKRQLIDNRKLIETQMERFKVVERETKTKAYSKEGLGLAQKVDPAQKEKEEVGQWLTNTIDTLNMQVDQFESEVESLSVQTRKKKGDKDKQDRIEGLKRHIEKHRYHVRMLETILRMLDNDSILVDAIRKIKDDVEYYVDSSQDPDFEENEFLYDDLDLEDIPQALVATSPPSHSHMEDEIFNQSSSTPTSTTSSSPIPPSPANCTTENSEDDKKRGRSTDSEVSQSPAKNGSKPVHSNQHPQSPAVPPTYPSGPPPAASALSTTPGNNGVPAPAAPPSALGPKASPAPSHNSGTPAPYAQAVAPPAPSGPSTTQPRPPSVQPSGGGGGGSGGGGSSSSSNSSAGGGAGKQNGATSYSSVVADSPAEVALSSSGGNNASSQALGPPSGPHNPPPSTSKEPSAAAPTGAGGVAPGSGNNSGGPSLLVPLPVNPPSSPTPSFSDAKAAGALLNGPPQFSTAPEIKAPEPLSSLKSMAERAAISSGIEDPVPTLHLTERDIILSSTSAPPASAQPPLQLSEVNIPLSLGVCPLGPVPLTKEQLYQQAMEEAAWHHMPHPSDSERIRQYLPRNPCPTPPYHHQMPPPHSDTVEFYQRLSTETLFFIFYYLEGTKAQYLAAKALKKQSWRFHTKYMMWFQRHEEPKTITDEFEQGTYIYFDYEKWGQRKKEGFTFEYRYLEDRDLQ
# LARP4, Q71RC2, UniProt Q71RC2, whole entry: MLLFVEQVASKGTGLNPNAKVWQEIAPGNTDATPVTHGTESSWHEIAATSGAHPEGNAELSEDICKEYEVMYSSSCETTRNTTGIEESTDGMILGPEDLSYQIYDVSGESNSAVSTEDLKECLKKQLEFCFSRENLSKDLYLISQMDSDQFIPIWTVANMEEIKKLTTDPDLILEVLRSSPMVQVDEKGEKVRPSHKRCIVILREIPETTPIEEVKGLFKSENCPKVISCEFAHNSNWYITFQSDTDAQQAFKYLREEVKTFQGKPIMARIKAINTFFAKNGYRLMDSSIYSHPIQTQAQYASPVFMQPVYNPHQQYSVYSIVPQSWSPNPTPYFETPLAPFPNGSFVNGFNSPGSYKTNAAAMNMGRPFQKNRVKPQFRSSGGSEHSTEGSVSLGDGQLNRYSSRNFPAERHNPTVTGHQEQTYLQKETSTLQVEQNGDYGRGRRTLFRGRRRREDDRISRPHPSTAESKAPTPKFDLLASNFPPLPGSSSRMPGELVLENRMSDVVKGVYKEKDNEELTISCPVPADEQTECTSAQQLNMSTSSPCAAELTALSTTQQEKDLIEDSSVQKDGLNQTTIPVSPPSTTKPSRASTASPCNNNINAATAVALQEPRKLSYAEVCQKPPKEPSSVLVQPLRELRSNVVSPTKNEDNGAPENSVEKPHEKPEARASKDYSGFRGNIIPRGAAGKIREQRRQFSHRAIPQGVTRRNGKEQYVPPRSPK
# DCTN3, O75935, UniProt O75935, whole entry: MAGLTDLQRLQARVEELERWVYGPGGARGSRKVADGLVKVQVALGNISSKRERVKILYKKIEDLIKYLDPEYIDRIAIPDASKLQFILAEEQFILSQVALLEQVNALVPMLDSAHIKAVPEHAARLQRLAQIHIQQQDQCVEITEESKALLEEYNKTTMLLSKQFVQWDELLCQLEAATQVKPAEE
# MORF4L2, Q15014, UniProt Q15014, whole entry: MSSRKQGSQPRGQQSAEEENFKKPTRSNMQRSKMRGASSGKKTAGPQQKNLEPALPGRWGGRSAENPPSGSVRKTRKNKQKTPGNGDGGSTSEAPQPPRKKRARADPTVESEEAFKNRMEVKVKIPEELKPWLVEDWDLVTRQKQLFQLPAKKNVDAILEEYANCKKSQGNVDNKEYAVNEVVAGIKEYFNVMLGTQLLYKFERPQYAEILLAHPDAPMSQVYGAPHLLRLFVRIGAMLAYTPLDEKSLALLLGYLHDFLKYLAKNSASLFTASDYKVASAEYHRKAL
# NUTF2, P61970, UniProt P61970, whole entry: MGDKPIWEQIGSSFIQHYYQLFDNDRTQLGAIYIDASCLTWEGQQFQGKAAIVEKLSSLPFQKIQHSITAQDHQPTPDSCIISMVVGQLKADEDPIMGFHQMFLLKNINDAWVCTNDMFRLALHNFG
# DPYSL3, Q14195, UniProt Q14195, whole entry: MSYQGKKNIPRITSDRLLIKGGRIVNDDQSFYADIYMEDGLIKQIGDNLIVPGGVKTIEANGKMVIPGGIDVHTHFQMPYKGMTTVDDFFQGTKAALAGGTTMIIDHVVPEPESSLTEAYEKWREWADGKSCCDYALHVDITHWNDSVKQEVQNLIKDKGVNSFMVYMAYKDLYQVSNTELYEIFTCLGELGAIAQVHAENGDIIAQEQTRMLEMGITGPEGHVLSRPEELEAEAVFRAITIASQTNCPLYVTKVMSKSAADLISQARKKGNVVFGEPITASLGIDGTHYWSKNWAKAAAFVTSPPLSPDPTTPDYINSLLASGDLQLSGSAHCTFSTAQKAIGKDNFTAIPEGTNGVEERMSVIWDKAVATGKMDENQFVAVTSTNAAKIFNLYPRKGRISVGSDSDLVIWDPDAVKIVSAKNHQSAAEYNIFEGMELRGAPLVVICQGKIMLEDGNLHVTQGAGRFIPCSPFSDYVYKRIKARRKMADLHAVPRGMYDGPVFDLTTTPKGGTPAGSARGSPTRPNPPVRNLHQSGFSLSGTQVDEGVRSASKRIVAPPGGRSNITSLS
# CAPZB, P47756, UniProt P47756, whole entry: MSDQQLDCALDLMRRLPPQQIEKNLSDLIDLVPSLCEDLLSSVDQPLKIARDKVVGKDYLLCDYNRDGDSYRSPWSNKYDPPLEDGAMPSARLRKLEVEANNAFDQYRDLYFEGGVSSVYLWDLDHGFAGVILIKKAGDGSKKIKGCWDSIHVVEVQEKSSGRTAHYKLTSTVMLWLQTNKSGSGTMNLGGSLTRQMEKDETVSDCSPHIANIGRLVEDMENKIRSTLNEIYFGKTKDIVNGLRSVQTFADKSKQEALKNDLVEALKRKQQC
# CD2AP, Q9Y5K6, UniProt Q9Y5K6, whole entry: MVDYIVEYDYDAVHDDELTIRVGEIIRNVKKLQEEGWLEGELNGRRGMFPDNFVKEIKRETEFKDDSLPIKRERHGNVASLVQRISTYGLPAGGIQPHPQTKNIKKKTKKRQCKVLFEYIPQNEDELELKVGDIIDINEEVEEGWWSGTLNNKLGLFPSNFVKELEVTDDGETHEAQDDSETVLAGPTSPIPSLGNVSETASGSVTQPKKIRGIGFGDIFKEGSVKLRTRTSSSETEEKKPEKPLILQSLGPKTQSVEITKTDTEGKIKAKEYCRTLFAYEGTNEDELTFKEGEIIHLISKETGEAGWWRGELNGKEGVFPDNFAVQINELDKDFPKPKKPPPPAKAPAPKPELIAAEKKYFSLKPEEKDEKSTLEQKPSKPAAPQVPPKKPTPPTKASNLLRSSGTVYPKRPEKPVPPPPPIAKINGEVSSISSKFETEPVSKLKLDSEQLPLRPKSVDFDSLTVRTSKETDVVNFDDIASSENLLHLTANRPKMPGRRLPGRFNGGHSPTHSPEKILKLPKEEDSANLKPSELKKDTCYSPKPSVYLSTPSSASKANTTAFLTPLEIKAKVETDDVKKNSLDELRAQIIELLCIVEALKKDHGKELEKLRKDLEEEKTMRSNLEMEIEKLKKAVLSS
# NFRKB, Q6P4R8, UniProt Q6P4R8, whole entry: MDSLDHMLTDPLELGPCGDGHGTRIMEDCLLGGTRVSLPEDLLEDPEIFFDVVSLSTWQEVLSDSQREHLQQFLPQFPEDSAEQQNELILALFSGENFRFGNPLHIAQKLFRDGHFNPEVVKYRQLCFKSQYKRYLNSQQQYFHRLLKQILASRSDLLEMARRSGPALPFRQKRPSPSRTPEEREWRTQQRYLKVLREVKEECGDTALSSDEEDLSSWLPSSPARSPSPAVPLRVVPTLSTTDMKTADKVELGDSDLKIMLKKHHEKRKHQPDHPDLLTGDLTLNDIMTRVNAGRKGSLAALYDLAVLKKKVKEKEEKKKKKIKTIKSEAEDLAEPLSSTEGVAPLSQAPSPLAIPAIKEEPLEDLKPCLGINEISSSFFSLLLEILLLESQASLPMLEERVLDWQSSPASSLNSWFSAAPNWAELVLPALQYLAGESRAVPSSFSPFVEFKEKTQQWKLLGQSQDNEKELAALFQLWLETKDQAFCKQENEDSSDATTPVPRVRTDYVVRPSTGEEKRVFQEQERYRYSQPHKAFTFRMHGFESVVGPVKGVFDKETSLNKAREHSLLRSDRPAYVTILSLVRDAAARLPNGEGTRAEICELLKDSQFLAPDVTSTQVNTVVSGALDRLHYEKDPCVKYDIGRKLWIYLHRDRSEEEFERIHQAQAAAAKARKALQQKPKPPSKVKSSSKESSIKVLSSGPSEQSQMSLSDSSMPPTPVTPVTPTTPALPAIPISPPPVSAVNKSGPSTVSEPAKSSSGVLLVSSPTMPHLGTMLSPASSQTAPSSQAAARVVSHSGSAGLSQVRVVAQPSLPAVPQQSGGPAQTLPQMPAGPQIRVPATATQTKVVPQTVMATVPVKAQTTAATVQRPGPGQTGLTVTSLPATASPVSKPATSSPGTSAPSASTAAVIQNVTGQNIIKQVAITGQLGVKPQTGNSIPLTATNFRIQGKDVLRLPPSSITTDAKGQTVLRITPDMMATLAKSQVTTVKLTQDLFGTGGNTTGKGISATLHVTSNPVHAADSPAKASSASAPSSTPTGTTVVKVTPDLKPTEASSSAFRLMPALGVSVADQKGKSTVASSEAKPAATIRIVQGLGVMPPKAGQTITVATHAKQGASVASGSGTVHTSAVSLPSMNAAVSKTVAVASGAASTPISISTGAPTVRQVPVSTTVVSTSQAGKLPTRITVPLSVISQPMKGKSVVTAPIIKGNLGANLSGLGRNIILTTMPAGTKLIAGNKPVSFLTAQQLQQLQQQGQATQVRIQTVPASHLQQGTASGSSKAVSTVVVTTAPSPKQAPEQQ
# RBM25, P49756, UniProt P49756, whole entry: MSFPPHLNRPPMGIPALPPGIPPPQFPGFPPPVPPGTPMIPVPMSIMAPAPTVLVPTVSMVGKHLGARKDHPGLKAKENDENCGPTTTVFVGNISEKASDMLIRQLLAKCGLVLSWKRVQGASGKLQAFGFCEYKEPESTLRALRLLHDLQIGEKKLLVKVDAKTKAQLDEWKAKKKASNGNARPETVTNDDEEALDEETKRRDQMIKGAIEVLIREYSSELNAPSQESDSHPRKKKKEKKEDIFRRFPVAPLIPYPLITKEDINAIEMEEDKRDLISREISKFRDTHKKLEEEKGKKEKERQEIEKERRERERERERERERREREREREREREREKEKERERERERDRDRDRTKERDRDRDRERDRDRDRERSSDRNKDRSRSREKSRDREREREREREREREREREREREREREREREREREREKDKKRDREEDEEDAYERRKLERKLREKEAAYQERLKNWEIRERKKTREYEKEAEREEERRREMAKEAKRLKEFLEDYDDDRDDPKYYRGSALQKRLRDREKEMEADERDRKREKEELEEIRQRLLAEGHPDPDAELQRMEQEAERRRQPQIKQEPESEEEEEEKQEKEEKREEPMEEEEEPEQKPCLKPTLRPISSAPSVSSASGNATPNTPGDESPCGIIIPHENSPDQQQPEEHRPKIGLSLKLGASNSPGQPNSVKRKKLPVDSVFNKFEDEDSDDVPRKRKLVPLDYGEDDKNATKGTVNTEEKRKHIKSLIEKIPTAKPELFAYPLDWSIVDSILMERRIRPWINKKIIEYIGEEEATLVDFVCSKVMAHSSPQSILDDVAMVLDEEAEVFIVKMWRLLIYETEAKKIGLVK
# DLX6, P56179, UniProt P56179, whole entry: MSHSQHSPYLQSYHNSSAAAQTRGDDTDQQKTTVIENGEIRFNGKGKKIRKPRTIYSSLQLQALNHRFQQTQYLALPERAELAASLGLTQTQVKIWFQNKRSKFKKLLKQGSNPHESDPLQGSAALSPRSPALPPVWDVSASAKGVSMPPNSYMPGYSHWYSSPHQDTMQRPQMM
# CCNB1, P14635, UniProt P14635, whole entry: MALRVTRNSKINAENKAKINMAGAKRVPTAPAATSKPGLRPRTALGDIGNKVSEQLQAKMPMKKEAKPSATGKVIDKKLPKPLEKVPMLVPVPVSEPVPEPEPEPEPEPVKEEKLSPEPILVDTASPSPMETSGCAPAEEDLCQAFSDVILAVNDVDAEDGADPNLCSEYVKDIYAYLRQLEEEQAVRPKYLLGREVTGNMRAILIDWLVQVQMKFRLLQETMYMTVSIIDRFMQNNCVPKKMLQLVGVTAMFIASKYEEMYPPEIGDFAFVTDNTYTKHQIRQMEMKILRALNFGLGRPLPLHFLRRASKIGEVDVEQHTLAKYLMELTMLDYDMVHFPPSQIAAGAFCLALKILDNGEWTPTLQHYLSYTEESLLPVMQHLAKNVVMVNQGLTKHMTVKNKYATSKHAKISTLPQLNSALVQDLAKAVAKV
# The other results are listed elsewhere or left out. Only hits are listed; about a third recur on repeated control peptides.
# Experiments:
# Test in all cases: PRISMA enrichment of interactor (LFQ) in peptide spot vs all other peptide spots (log2 fold change); higher = stronger / more specific binding of the interactor to the peptide
# [1] = molecular target: CNOT3, O75175
# Experimental: (§1)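 PRISMA: 221 full-length sORF-encoded peptides (3-15 aa), plus SOS1/GLUT1 control peptides, were spot-synthesized on cellulose membranes in triplicate. Membranes were incubated with HEK293T lysate, and bound proteins were identified by LC-MS/MS with LFQ. Enrichment is the log2 fold change versus all other peptide spots; only significant interactors are listed (cutoff c=6, x0=2.8).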
# [2] = molecular target: LARP4, Q71RC2
# Experimental: as §1
# [3] = molecular target: MRM3, Q9HC36
# Experimental: as §1
# [4] = molecular target: PI4KA, P42356
# Experimental: as §1
# [5] = molecular target: PPAN-P2RY11
# Experimental: as §1
# [6] = molecular target: RELCH, Q9P260
# Experimental: as §1
# [7] = molecular target: UBA2, Q9UBT2
# Experimental: as §1
# [8] = molecular target: DCTN3, O75935
# Experimental: as §1
# [9] = molecular target: GEMIN5, Q8TEQ6
# Experimental: as §1
# [10] = molecular target: PRPSAP1, Q14558
# Experimental: as §1
# [11] = molecular target: RAP1GDS1, P52306
# Experimental: as §1
# [12] = molecular target: RNF113A, O15541
# Experimental: as §1
# [13] = molecular target: C19orf53, Q9UNZ5
# Experimental: as §1
# [14] = molecular target: CSNK1A1, P48729
# Experimental: as §1
# [15] = molecular target: DECR2, Q9NUI1
# Experimental: as §1
# [16] = molecular target: DNAJC10, Q8IXB1
# Experimental: as §1
# [17] = molecular target: EMG1, Q92979
# Experimental: as §1
# [18] = molecular target: ISCA1, Q9BUE6
# Experimental: as §1
# [19] = molecular target: MORF4L2, Q15014
# Experimental: as §1
# [20] = molecular target: PLK1, P53350
# Experimental: as §1
# [21] = molecular target: POLDIP2, Q9Y2S7
# Experimental: as §1
# [22] = substrate: PPIF, P30405
# Experimental: as §1
# [23] = molecular target: ZNF768, Q9H5H4
# Experimental: as §1
# [24] = molecular target: DSTN, P60981
# Experimental: as §1
# [25] = molecular target: NQO2, P16083
# Experimental: as §1
# [26] = molecular target: NUP188, Q5SRE5
# Experimental: as §1
# [27] = molecular target: RBIS, Q8N0T1
# Experimental: as §1
# [28] = molecular target: RBM22, Q9NW64
# Experimental: as §1
# [29] = molecular target: COA7, Q96BR5
# Experimental: as §1
# [30] = molecular target: NUTF2, P61970
# Experimental: as §1
# [31] = molecular target: NXF1, Q9UBU9
# Experimental: as §1
# [32] = molecular target: PDCD6, O75340
# Experimental: as §1
# [33] = molecular target: SLC25A17, O43808
# Experimental: as §1
# [34] = molecular target: CHMP2A, O43633
# Experimental: as §1
# [35] = molecular target: MARK2, Q7KZI7
# Experimental: as §1
# [36] = molecular target: DPYSL3, Q14195
# Experimental: as §1
# [37] = molecular target: STAG2, Q8N3U4
# Experimental: as §1
# [38] = molecular target: CAPZB, P47756
# Experimental: as §1
# [39] = molecular target: CD2AP, Q9Y5K6
# Experimental: as §1
# [40] = molecular target: HCFC1, P51610
# Experimental: as §1
# [41] = molecular target: MRS2, Q9HD23
# Experimental: as §1
# [42] = molecular target: NFRKB, Q6P4R8
# Experimental: as §1
# [43] = molecular target: PRPF31, Q8WWY3
# Experimental: as §1
# [44] = molecular target: TRIM44, Q96DX7
# Experimental: as §1
# [45] = molecular target: DMD, P11532
# Experimental: as §1
# [46] = molecular target: LTF, P02788
# Experimental: as §1
# [47] = molecular target: MEMO1, Q9Y316
# Experimental: as §1
# [48] = molecular target: CENPB, P07199
# Experimental: as §1
# [49] = molecular target: MRPL10, Q7Z7H8
# Experimental: as §1
# [50] = molecular target: MRPS21, P82921
# Experimental: as §1
# [51] = molecular target: DSC1, Q08554
# Experimental: as §1
# [52] = molecular target: IDH2, P48735
# Experimental: as §1
# [53] = molecular target: MRPL2, Q5T653
# Experimental: as §1
# [54] = molecular target: RBM25, P49756
# Experimental: as §1
# [55] = molecular target: CCDC178, Q5BJE1
# Experimental: as §1
# [56] = molecular target: CHD8, Q9HCK8
# Experimental: as §1
# [57] = molecular target: COMT, P21964
# Experimental: as §1
# [58] = molecular target: DLX6, P56179
# Experimental: as §1
# [59] = molecular target: LRRTM2, O43300
# Experimental: as §1
# [60] = molecular target: METTL26, Q96S19
# Experimental: as §1
# [61] = molecular target: MRPS16, Q9Y3D3
# Experimental: as §1
# [62] = molecular target: PMPCA, Q10713
# Experimental: as §1
# [63] = molecular target: CCNB1, P14635
# Experimental: as §1
# [64] = molecular target: ELOVL5, Q9NYP7
# Experimental: as §1
# [65] = molecular target: GPHN, Q9NQX3
# Experimental: as §1
# [66] = molecular target: MRPL16, Q9NX20
# Experimental: as §1
binder,measurement,setting,value
MIYGNKVLSLCLK [PSMA3-AS1],PRISMA enrichment of interactor (log2),[1],4.48
same,PRISMA enrichment of interactor (log2),[2],4.47
same,PRISMA enrichment of interactor (log2),[3],3.97
same,PRISMA enrichment of interactor (log2),[4],4.12
same,PRISMA enrichment of interactor (log2),[5],6.61
same,PRISMA enrichment of interactor (log2),[6],4.49
same,PRISMA enrichment of interactor (log2),[7],4.8
MQRRGLSEIQT [CHCHD7],PRISMA enrichment of interactor (log2),[8],6.38
same,PRISMA enrichment of interactor (log2),[9],4.87
same,PRISMA enrichment of interactor (log2),[10],5.15
same,PRISMA enrichment of interactor (log2),[11],9.83
same,PRISMA enrichment of interactor (log2),[12],5.69
MQRPMDELCF [ABCA9],PRISMA enrichment of interactor (log2),[13],6.86
same,PRISMA enrichment of interactor (log2),[14],6.81
same,PRISMA enrichment of interactor (log2),[15],5.31
same,PRISMA enrichment of interactor (log2),[16],6.32
same,PRISMA enrichment of interactor (log2),[17],7.5
same,PRISMA enrichment of interactor (log2),[18],3.76
same,PRISMA enrichment of interactor (log2),[19],7.53
same,PRISMA enrichment of interactor (log2),[20],6.34
same,PRISMA enrichment of interactor (log2),[21],7.47
same,PRISMA enrichment of interactor (log2),[22],6.22
same,PRISMA enrichment of interactor (log2),[23],6.04
MAAGRPLPDSSS [FAM204A],PRISMA enrichment of interactor (log2),[24],8.03
same,PRISMA enrichment of interactor (log2),[25],4.42
same,PRISMA enrichment of interactor (log2),[26],7.02
same,PRISMA enrichment of interactor (log2),[27],7.31
same,PRISMA enrichment of interactor (log2),[28],4.77
MFLG [PDE4DIP],PRISMA enrichment of interactor (log2),[29],5.97
same,PRISMA enrichment of interactor (log2),[30],7.01
same,PRISMA enrichment of interactor (log2),[31],5.62
same,PRISMA enrichment of interactor (log2),[32],5.91
same,PRISMA enrichment of interactor (log2),[33],4.58
MELVVKVDRGRW [ATG9A],PRISMA enrichment of interactor (log2),[34],7.57
same,PRISMA enrichment of interactor (log2),[35],4.44
MLIPRP [WBP1L],PRISMA enrichment of interactor (log2),[36],4.87
same,PRISMA enrichment of interactor (log2),[37],4.65
MAAPRV [COPS5],PRISMA enrichment of interactor (log2),[38],4.8
same,PRISMA enrichment of interactor (log2),[39],9.71
MADASMLELVVA [SF3B3],PRISMA enrichment of interactor (log2),[13],8.24
same,PRISMA enrichment of interactor (log2),[40],7.44
same,PRISMA enrichment of interactor (log2),[41],6.16
same,PRISMA enrichment of interactor (log2),[42],7.19
same,PRISMA enrichment of interactor (log2),[43],6.04
same,PRISMA enrichment of interactor (log2),[44],9.28
MEGMLLA [NNMT],PRISMA enrichment of interactor (log2),[45],8.77
same,PRISMA enrichment of interactor (log2),[46],6.31
same,PRISMA enrichment of interactor (log2),[47],5.93
MFQNRVRPLVKKN [CNOT1],PRISMA enrichment of interactor (log2),[48],5.05
same,PRISMA enrichment of interactor (log2),[49],7.37
same,PRISMA enrichment of interactor (log2),[50],5.56
MHLVRTEHKLPG [MAP4],PRISMA enrichment of interactor (log2),[51],7.06
same,PRISMA enrichment of interactor (log2),[52],3.86
same,PRISMA enrichment of interactor (log2),[53],7.27
same,PRISMA enrichment of interactor (log2),[54],13
MAVALSAPAIRLSD [DUSP26],PRISMA enrichment of interactor (log2),[55],6.28
same,PRISMA enrichment of interactor (log2),[56],7.08
same,PRISMA enrichment of interactor (log2),[57],4.79
same,PRISMA enrichment of interactor (log2),[58],7.89
same,PRISMA enrichment of interactor (log2),[59],7.35
same,PRISMA enrichment of interactor (log2),[60],10.6
same,PRISMA enrichment of interactor (log2),[61],6.63
same,PRISMA enrichment of interactor (log2),[62],7.07
MFSVIGDKYTYRGSQ [MEOX1],PRISMA enrichment of interactor (log2),[63],3.88
same,PRISMA enrichment of interactor (log2),[64],5.69
same,PRISMA enrichment of interactor (log2),[65],10.9
same,PRISMA enrichment of interactor (log2),[66],5.36

# Exported with bars between the fields: part of the list above
binder | measurement | setting | value
MQRRGLSEIQT [CHCHD7] | PRISMA enrichment of interactor (log2) | [12] | 5.69
MQRPMDELCF [ABCA9] | PRISMA enrichment of interactor (log2) | [13] | 6.86

# 2 entries from above, as tab-separated lines:
binder	measurement	setting	value
MFQNRVRPLVKKN [CNOT1]	PRISMA enrichment of interactor (log2)	[49]	7.37
same	PRISMA enrichment of interactor (log2)	[50]	5.56
